Experimental findings from article PMC5736539 are described below.

Sequences of proteins named here, by UniProt entry; tags and fusion partners are left off. A change or cut given only in a name is not applied to a line headed by its entry.
UniProt P54578: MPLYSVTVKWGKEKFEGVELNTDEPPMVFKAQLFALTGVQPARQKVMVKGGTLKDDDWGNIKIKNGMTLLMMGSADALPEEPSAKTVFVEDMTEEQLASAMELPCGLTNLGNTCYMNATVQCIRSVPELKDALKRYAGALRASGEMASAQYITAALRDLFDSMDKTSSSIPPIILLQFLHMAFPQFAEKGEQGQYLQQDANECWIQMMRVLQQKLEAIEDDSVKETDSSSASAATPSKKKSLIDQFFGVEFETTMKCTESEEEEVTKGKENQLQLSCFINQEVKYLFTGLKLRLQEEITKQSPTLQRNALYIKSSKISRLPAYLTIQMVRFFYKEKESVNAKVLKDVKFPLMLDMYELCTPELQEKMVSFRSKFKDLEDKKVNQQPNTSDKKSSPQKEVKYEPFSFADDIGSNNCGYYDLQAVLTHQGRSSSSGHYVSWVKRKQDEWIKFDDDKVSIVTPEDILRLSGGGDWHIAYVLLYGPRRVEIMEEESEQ
UniProt Q14457: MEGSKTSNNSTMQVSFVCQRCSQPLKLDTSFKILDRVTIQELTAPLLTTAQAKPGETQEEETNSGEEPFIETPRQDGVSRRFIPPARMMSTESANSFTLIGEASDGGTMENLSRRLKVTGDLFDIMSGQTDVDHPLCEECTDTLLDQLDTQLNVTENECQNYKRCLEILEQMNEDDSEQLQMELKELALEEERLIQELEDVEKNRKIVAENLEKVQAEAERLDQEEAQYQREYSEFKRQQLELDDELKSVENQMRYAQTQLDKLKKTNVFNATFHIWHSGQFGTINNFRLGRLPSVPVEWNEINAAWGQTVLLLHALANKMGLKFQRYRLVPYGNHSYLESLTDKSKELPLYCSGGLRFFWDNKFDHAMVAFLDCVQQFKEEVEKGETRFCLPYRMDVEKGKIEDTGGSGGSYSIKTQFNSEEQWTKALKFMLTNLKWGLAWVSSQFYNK

For this experiment, the target named is Flag-tagged USP14 (ubiquitin-specific protease 14) (UniProt P54578). The experiment in a line: co-IP; HEK293T co-transfected, extracted 38 h after transfection; IP with anti-Flag antibody (Flag-USP14 or Flag-TRAF6 as bait), western blot (Figures 1B, 1E). For orientation: Immunoblotting shows a protein as a band on a membrane.

Results are given in words; binding and its absence hold for the method and conditions named. Binding seen in cells or lysates may run through a third protein. Some entries that bind do so weakly or less than the wild type.

Consider “Myc-tagged Beclin 1 1-127 (from UniProt Q14457 1-127) (domain or fragment)”, for which the binding entry is listed as “no binding”. “Myc-tagged Beclin 1 wild type (from UniProt Q14457 1-450)”: the binding entry was “binds”.
